Assay results: PubChem BioAssay AID540276 (National Center for Advancing Translational Sciences (NCATS), 2011)
Among all 300,000 compounds or so, about 5,400 (1.8%) were called active. Inconclusive means that the source gave no clear call. Such entries were picked first, then a sample of the others. The call rests on the fitted dose curve; tested in HEK293 cells. Potencies of inconclusive entries are doubtful fits and often do not repeat.

Assay: qHTS for inhibitors of binding or entry into cells for Marburg Virus
Conditions: Marburg virus pseudotyped entry inhibition, cell reporter; activity change, negative = inhibition: at 37.8 µM (top of the series) unless noted
On the % scale 0 is the no-effect control and ±100 the full control effect; potency means the concentration at half of the fitted maximal effect.

Compound | Potency | activity change, negative = inhibition
CCc1cc(=O)oc2cc(C)c3c(C)coc3c12 | inconclusive: 23.1 µM [activator, single point] | 
COc1ccc(NC(=O)CC2C(=O)N(CCc3ccccc3)C(=S)N2Cc2cccnc2)cc1 (stereo not given) | inconclusive: 29.1 µM [inhibitor, single point] | 
CCOC(=O)c1[nH]c(C)c(C(=O)Nc2cc(Cl)ccc2C)c1C | inconclusive: 0.058 µM [inhibitor, partial curve, poor fit] | 
CC(=O)Oc1ccc(/C=C/c2nc3ccccc3c(=O)o2)cc1 | inconclusive: 1.41 µM [inhibitor, partial curve, poor fit] | 
CCOc1ccc(OCC(=O)Nc2ccc(OC)cc2[N+](=O)[O-])cc1 | inconclusive: 35.5 µM [activator, single point] | 
Cc1ccc(NC(=O)CNCc2ccc(Cl)cc2Cl)cc1S(=O)(=O)N(C)C | inconclusive: 3.55 µM [inhibitor, partial curve, poor fit] | 
Cc1cc(F)ccc1NC(=O)C1CCCN(C(=O)c2cnn(-c3ccccc3)c2-n2cccc2)C1 (stereo not given) |  | inactive: 5.22% [at 46.1 µM]
CNc1nc(C(=O)O)nc(N2CCOCC2)n1 |  | inactive: 0.259%
O=C(Cn1ncc(Cl)c(Cl)c1=O)NC(=O)NC1CCCCC1 | active: 11.2 µM | 
CC(/C=N/n1c(-c2ccc(Cl)cc2)n[nH]c1=S)=C\c1ccco1 |  | inactive: -22%
CCOc1ccccc1NC(=O)c1oc2ccccc2c1NC(=O)C1CC1 | inconclusive: 6.31 µM [inhibitor, single point] | 
CC(=O)c1ccc(C(=O)N2CCCC(Nc3ccccc3)C2)s1 (stereo not given) | inconclusive: 0.794 µM [activator, full curve, poor fit] | 
O=C(Nc1ccc2c(c1)OCCO2)c1cncc(Br)c1 | inconclusive: 6.51 µM [inhibitor, full curve, poor fit] | 
COc1cccc(/C(O)=C/c2nc3ccc(C(=O)NCCc4cccc(C)c4)cc3[nH]c2=O)c1 | inconclusive: 35.5 µM [inhibitor, single point] | 
COc1ccc([N+](=O)[O-])cc1NC(=O)Nc1ccc(OC)c(OC)c1 | inconclusive: 8.91 µM [inhibitor, partial curve, poor fit] | 
CCc1ccc(-c2csc3ncn(Cc4ccc(C(=O)O)cc4)c(=O)c23)cc1 | inconclusive: 0.562 µM [inhibitor, partial curve, poor fit] | 
CC(C)c1ncc(C(O)c2cccc3ccccc23)n1C (stereo not given) | inconclusive: 5.62 µM [activator, single point] | 
Cc1nc2ccc(NC(=O)c3cc(S(=O)(=O)N(C)c4ccccc4)ccc3Cl)cc2s1 | inconclusive: 0.282 µM [inhibitor, full curve, poor fit] | 
Cc1cc(C)c(NC(=O)C(C)n2nc(C)c3sc4ccccc4c3c2=O)c(C)c1 (stereo not given) | inconclusive: 35.5 µM [activator, single point] | 
Cc1ccc(C)c(Cn2c(=O)n(Cc3ccc(C(=O)NC4CCN(Cc5ccccc5)CC4)cc3)c(=O)c3ccccc32)c1 |  | inactive: -7.09% [at 46.1 µM]
O=C(O)CSc1nc2c(cnn2-c2ccccc2)c(=O)n1-c1ccc(Br)cc1 | inconclusive: 11.2 µM [activator, single point] | 
O=S(=O)(c1ccc(-c2csc(=Nc3ccccc3)n2CCCN2CCOCC2)cc1)N1CCOCC1 | inconclusive: 35.5 µM [inhibitor, partial curve, poor fit] | 

Compound | Potency | activity change, negative = inhibition
O=C(c1cn[nH]c1)N1CCc2c([nH]c3ccccc23)C1c1c(F)cccc1Cl (stereo not given) | inconclusive: 20 µM [inhibitor, partial curve, poor fit] | 
CC(C)c1ccc(NC(=O)CSc2nc(=O)n(CCCN3CCOCC3)c3c2CCCC3)cc1 | inconclusive: 35.5 µM [inhibitor, single point] | 
Cc1ccccc1OCC(=O)N/N=C/c1ccccn1 |  | inactive: -7.05%
COc1ccc(C(=O)NC2CCN(C(=S)Nc3ccc(C)c(C)c3)CC2)cc1 |  | inactive: 11.7%
COc1cc(/C=N/Nc2ccccc2[N+](=O)[O-])ccc1OC(=O)c1ccccc1F | inconclusive: 1.58 µM [activator, partial curve, poor fit] | 
O=C(/C=C/c1ccco1)NC(=S)Nc1cccc(-c2nc3ccccc3o2)c1 | inconclusive: 3.98 µM [inhibitor, partial curve, poor fit] | 
CCOc1ccc(Cl)cc1/C=N/NC(=O)c1ccccc1 |  | inactive: -5.23%
COc1ccccc1-c1nnc2n(CCc3ccccc3)c(=O)c3ccccc3n12 |  | inactive: 8.21% [at 46.1 µM]
CCn1c(=N)c(C(=O)NC2CCCCC2)cc2c(=O)n3cccc(C)c3nc21 | inconclusive: 35.5 µM [activator, single point] | 
N#Cc1nc(COc2ccccc2)oc1N1CCC(Cc2ccccc2)CC1 | inconclusive: 12.6 µM [inhibitor, partial curve, poor fit] | 
COc1ccc(N2CCN(C(=S)Nc3ccccc3)CC2)cc1 | inconclusive: 3.55 µM [inhibitor, partial curve] | 
C=CCNC(=O)CCCOc1cc(C)ccc1C |  | inactive: 4.37%
CC(C)=CCN1CCN(C/C(Cl)=C/c2ccccc2)CC1CCO (stereo not given) | inconclusive: 11.2 µM [inhibitor, single point] | 
COc1cccc(CNC(=O)CSCc2cnn(-c3ccccc3)c2-n2cccc2)c1 | inconclusive: 0.103 µM [inhibitor, full curve, poor fit] | 
Cc1c(/C=C/C(=O)c2cccs2)cnn1C |  | inactive: 3.53%
COc1cc(NC(=O)COc2ccccc2)c(OC)cc1NC(C)=O | inconclusive: 3.16 µM [activator, single point] | 
CN(C)CCN=c1cc(-c2ccccc2)oc2ccc(Cl)cc12 | inconclusive: 3.16 µM [activator, partial curve, poor fit] | 
Cc1nc(C)n(C(C)CNC(=O)c2cccc(Br)c2)n1 (stereo not given) | inconclusive: 3.55 µM [inhibitor, single point] | 
COCCn1c(N)c(N(Cc2ccccc2)C(=O)c2cc(=O)[nH]c3ccccc23)c(=O)[nH]c1=O | inconclusive: 5.62 µM [activator, single point] | 
Cc1ccccc1-c1nc(C(N)=O)c2c(n1)n(-c1ccc3c(c1)OCO3)c(=O)n2C | inconclusive: 35.5 µM [inhibitor, single point] | 
O=C(CSc1nc2ccccc2s1)NCc1ccc2c(c1)OCO2 |  | inactive: -0.329%
Cc1cc(C)c(S(=O)(=O)OC[C@H]2C=CC[C@@H](CCC[C@H]3O[C@H](C(=O)OC(C)C)CC[C@@H]3C)O2)c(C)c1 | inactive | 

Compound | Potency | activity change, negative = inhibition
Oc1ccc([C@@H]2CNCCc3c2cc(O)c(O)c3Cl)cc1 | inconclusive: 1.83 µM [activator, partial curve] | 
Cc1ccc2nc(SCC(=O)N3CCOCC3)[nH]c2c1 | inconclusive: 4.47 µM [activator, single point] | 
CCn1nc(NC(=O)c2ccncc2)c2cc3ccccc3nc21 |  | inactive: -12.6% [at 46.1 µM]
COc1ccc(C(=O)C2CCCN(Cc3ccc(C#CCCO)cc3)C2)cc1F (stereo not given) | active: 1.12 µM | 
COc1ccc(C2CC(C)(c3ccc(OC)cc3)Nc3ccccc3N2)cc1 (stereo not given) | inconclusive: 7.94 µM [inhibitor, partial curve, poor fit] | 
COc1cc(C2c3cc4c(c(O)c3CC3COC(=O)C32)OCO4)cc(OC)c1OC (stereo not given) | inconclusive: 10 µM [inhibitor, partial curve, poor fit] | 
COc1ccc(C2C(Oc3ccccc3)C(=O)N2c2cc(C)ccc2C)cc1OC (stereo not given) | inconclusive: 15.8 µM [inhibitor, single point] | 
O=C(c1ccco1)N1CCN(c2c(-c3ccccc3)c3cc(Cl)ccc3[nH]c2=O)CC1 | inconclusive: 23.1 µM [inhibitor, single point] | 
COc1ccc(NC(=O)Cc2ccccc2)cc1 | inconclusive: 2.59 µM [activator, full curve] | 
CCCOc1ccc(C(=O)N(Cc2cccs2)c2ccc(C)cc2)cc1 |  | inactive: -6.75% [at 46.1 µM]
CN=c1scc(-c2ccccc2F)n1/N=C/c1ccc(O)c(O)c1O | inconclusive: 2.82 µM [inhibitor, full curve, poor fit] | 
COc1cccc(CCNC(=O)CC2C(=O)NCCN2CC(C)(C)C)c1 (stereo not given) |  | inactive: 15.4% [at 46.1 µM]
Cn1c(=O)n(Cc2ccc(F)cc2)c(=O)c2c1nc1n2CCCN1Cc1ccccc1 | inconclusive: 35.5 µM [inhibitor, partial curve, poor fit] | 
Cc1ccccc1-n1c(O)c(C(c2ccncc2)c2c(O)n(-c3ccccc3C)c(=O)[nH]c2=O)c(=O)[nH]c1=O | inconclusive: 35.5 µM [inhibitor, single point] | 
COc1cccc(-c2cc(C(=O)NCc3ccco3)no2)c1 |  | inactive: -17.4%
CCOC(=O)N1CCN(C(=O)c2cccc(OC)c2OC)CC1 | inconclusive: 14.1 µM [activator, single point] | 
CCNC(=O)C/C(C)=N/NC(=O)C1CCCCC1 | inconclusive: 6.31 µM [activator, single point] | 
CN1/C(=C\C=Nc2ccccc2)C(C)(C)c2ccccc21 | inconclusive: 29.1 µM [inhibitor, single point] | 
Cc1c(C(=O)NNC(=O)c2ccccc2O)oc2ccc(Br)cc12 |  | inactive: -4.38%
CC[C@@H](CO)NC(=O)[C@@H]1C=C2c3cccc4[nH]cc(c34)C[C@H]2N(C)C1 | inconclusive: 1.12 µM [inhibitor, full curve, poor fit] | 
Cc1cc(C)nc(OC(C(=O)O)C(OCCc2ccccc2)(c2ccccc2)c2ccccc2)n1 (stereo not given) | inconclusive: 17.8 µM [inhibitor, single point] | 

For convenience, some entries already given.
Compound | Potency | activity change, negative = inhibition
CCOC(=O)N1CCN(C(=O)c2cccc(OC)c2OC)CC1 | inconclusive: 14.1 µM [activator, single point] | 
CCNC(=O)C/C(C)=N/NC(=O)C1CCCCC1 | inconclusive: 6.31 µM [activator, single point] | 
CN1/C(=C\C=Nc2ccccc2)C(C)(C)c2ccccc21 | inconclusive: 29.1 µM [inhibitor, single point] | 
